# These are yes or no findings as the source states them, for the method shown. Binding seen in cells or lysates may run through a third protein. Here binding means that the protein was enriched with, or labelled near, the bait; the list need not be complete.
# Sequences of proteins named here, by UniProt entry; tags and fusion partners are left off. Residues count along the entry.
# UniProt Q9C0K0: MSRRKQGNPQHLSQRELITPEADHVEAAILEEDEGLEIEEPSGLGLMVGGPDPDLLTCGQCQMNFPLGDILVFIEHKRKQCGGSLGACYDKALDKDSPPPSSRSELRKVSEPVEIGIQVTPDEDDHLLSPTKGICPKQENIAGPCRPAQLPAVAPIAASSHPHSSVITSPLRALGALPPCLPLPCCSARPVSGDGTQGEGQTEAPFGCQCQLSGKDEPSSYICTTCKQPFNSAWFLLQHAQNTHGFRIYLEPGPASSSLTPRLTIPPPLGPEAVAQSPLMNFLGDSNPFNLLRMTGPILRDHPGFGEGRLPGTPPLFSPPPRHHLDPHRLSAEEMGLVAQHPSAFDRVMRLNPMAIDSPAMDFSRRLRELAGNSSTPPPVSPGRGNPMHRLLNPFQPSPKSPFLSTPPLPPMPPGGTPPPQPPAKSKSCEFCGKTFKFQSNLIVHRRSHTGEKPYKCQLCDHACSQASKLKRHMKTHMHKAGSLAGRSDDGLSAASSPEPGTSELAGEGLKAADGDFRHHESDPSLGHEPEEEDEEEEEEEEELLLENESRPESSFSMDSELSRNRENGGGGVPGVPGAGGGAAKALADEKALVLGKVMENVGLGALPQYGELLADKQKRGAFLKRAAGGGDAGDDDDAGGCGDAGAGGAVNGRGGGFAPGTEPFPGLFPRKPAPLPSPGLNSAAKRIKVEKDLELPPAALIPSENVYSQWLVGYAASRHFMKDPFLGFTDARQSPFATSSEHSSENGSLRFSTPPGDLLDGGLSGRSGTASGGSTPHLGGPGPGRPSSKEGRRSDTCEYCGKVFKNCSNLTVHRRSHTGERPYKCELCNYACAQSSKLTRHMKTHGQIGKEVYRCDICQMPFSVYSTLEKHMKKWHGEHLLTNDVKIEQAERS
# UniProt Q14839: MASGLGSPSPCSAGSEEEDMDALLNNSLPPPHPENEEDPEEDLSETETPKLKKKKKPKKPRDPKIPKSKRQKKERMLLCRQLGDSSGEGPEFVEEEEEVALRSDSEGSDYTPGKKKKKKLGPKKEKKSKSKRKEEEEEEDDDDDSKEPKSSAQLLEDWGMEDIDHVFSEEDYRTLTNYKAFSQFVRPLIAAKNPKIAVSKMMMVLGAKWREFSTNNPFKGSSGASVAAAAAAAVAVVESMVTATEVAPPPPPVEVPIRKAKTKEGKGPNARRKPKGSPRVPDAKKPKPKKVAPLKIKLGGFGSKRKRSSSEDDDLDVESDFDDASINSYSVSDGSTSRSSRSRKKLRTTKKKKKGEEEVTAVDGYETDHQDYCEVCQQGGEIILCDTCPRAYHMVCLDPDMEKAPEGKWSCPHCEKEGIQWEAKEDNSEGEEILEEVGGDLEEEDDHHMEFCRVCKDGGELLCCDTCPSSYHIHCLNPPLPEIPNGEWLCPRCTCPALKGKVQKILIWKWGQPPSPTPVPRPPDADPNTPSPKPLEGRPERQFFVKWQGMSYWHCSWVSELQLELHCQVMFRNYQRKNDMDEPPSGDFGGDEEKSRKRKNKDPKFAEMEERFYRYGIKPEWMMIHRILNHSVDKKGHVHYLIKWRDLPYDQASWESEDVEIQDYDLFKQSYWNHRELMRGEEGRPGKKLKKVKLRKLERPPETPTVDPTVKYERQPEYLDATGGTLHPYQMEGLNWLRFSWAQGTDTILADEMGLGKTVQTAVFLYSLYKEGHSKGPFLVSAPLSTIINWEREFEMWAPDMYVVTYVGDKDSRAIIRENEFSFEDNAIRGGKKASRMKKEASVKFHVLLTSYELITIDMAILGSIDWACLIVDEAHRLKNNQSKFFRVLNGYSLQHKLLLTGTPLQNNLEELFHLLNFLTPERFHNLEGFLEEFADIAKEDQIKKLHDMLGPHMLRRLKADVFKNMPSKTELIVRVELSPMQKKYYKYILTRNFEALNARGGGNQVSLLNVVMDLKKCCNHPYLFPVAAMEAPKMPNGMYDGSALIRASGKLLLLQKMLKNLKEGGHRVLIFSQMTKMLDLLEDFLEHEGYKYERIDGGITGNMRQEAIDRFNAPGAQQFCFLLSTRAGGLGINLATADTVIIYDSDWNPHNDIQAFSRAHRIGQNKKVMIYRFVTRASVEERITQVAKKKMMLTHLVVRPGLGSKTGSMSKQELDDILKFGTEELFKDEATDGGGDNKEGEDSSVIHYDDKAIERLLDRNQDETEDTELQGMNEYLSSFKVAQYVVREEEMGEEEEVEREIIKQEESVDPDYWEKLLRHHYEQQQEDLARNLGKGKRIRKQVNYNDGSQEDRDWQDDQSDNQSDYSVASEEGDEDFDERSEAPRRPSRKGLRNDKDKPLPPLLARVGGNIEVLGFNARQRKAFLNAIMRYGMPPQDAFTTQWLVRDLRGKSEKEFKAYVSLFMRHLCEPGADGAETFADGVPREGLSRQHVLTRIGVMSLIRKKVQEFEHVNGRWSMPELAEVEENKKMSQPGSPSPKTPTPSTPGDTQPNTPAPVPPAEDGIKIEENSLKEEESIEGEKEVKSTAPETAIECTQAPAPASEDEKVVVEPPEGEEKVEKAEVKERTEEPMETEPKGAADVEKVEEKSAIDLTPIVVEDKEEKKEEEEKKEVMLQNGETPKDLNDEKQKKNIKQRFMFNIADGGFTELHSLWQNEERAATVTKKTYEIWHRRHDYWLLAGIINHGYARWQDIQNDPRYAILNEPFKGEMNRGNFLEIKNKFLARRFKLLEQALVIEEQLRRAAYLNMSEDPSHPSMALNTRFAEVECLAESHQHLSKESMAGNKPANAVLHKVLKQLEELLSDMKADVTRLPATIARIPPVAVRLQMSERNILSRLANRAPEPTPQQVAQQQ
# UniProt Q07021, residues 74-282: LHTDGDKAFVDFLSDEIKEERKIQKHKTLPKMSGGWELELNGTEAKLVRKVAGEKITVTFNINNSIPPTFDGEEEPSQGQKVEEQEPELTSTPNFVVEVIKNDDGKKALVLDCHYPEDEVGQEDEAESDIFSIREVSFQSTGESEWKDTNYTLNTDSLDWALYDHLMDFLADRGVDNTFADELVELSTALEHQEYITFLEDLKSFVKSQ
# UniProt Q13547: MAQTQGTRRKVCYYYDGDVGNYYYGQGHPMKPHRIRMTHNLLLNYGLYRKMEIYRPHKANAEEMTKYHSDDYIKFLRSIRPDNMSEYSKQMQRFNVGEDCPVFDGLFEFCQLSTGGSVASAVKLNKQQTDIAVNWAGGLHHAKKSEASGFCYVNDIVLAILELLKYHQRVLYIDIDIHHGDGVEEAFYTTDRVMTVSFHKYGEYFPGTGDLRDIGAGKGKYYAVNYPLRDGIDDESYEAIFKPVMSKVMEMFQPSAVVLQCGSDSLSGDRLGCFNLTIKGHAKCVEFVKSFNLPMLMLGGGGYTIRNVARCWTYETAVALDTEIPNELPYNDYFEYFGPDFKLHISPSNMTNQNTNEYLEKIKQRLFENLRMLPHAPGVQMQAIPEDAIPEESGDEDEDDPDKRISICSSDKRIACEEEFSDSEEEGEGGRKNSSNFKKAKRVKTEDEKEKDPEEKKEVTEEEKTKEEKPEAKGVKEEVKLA
# UniProt Q92769: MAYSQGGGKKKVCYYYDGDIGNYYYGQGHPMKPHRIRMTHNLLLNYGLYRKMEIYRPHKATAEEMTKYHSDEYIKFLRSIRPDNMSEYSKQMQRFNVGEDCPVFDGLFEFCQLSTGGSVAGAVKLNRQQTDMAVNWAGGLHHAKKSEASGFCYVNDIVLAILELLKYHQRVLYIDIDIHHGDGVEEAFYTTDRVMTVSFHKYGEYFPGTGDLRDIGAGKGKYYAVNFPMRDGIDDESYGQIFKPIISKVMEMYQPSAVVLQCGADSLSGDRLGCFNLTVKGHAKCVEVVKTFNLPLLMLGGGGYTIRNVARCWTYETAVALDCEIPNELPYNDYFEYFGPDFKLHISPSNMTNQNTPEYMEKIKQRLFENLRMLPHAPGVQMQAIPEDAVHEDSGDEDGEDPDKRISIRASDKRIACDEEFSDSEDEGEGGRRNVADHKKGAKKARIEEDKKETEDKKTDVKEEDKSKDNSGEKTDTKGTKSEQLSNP
# UniProt Q9ULL5: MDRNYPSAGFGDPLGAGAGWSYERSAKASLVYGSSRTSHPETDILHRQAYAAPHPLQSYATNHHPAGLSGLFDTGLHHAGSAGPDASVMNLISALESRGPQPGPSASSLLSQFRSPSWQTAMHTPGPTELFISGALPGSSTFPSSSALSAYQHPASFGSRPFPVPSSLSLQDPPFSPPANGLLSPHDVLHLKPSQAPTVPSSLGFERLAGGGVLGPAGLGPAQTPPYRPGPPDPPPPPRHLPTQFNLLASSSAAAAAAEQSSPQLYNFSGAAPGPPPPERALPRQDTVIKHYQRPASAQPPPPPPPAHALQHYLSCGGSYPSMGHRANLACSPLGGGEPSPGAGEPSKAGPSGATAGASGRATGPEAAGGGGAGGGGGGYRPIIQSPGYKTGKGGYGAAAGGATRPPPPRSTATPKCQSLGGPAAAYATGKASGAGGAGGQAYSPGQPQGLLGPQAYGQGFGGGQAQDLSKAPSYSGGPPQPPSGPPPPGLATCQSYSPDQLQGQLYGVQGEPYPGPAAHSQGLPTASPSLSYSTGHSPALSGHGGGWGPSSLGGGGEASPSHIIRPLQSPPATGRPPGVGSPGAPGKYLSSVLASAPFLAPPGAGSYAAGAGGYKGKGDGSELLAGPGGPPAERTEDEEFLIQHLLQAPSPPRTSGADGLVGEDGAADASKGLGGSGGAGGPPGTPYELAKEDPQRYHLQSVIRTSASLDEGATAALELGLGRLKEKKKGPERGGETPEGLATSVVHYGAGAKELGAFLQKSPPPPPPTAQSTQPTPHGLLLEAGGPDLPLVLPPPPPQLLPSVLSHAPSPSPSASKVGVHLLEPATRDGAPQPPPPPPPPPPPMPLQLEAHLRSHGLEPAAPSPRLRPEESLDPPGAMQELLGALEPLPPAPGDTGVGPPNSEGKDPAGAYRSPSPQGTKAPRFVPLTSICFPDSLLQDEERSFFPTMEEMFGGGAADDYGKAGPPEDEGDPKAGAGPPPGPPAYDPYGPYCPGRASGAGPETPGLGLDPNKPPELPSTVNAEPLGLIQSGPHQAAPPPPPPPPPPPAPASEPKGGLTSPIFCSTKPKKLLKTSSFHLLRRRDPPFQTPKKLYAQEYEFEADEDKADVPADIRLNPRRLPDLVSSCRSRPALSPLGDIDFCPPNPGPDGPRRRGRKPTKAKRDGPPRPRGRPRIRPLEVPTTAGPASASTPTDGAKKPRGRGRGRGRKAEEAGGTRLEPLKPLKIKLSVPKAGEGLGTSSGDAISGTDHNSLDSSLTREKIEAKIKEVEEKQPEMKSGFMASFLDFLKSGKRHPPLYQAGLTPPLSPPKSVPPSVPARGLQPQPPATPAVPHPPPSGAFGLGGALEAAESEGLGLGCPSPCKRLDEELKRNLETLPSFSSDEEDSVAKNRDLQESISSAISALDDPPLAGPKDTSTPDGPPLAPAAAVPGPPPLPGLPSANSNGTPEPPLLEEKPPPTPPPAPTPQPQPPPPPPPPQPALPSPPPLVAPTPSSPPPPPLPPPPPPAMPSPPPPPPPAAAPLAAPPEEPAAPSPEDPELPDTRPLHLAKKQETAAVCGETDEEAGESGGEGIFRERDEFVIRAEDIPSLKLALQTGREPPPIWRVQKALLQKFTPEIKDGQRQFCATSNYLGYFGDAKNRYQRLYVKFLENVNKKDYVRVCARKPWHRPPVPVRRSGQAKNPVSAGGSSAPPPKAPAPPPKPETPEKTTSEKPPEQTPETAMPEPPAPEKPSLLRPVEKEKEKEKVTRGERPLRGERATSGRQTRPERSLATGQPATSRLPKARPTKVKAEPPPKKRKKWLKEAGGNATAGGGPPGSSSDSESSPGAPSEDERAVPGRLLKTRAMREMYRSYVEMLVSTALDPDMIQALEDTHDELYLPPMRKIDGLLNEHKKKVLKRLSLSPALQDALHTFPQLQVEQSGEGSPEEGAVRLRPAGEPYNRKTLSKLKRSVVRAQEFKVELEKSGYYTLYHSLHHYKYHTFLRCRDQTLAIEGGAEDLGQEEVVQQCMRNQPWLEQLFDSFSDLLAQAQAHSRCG
# UniProt O15156: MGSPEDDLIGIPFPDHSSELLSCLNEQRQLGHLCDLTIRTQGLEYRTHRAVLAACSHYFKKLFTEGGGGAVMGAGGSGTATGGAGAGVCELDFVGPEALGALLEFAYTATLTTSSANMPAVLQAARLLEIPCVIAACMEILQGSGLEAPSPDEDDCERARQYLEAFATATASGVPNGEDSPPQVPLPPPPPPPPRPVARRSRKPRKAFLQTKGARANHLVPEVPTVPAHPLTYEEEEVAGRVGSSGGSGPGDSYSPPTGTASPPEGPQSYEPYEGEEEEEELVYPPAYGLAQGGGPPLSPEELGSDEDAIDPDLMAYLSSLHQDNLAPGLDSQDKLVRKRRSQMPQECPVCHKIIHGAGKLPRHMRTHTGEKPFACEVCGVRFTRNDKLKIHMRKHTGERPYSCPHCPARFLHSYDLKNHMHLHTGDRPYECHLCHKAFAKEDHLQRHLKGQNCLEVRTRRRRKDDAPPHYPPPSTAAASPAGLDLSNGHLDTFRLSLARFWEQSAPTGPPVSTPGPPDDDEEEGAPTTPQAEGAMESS
# Target: TTE-MBD2 (TY1-TY1-ER tagged human full length MBD2) (human) (UniProt Q9UBB5)
# Experiment: affinity purification with mass spectrometry; Ty1 immunoprecipitation (5 µg BB2 antibody, protein A/G plus-agarose beads) from 500 µg nuclear proteins of TTE-MBD2 MCF-7, over night at 4°C, triplicates; on-bead trypsin digestion, label-free quantitation (MaxQuant); WT MCF-7 as control
row,Substance,binding
1,B-cell lymphoma/leukemia 11B (from UniProt Q9C0K0 1-894),binds
2,C-terminal-binding protein 2 (from UniProt P56545 1-445),binds
3,Chromodomain-helicase-DNA-binding protein 3 (from UniProt Q12873 1-2000),binds
4,Chromodomain-helicase-DNA-binding protein 4 (from UniProt Q14839 1-1912),binds
5,Complement component 1 Q subcomponent-binding protein (from UniProt Q07021 74-282),binds
6,Histone deacetylase 1 (from UniProt Q13547 1-482),binds
7,Histone-binding protein RBBP4 (from UniProt Q09028 1-425),binds
8,MDS1 and EVI1 complex locus protein EVI1 (from UniProt Q03112 1-1230),binds
9,Zinc finger protein castor homolog 1 (from UniProt Q86V15 1-1759),binds

# Next, values leading:
row,binding,Substance
1,binds,Histone deacetylase 2 (from UniProt Q92769 1-488)
2,binds,Homeobox protein cut-like 1 (from UniProt P39880 1-1505)
3,binds,Proline-rich protein 12 (from UniProt Q9ULL5 1-2036)
4,binds,Zinc finger and BTB domain-containing protein 7B (from UniProt O15156 1-539)

# From paper PMC4057170
